These are yes or no findings as the source states them, for the method shown. In cells and extracts the contact can be indirect. Here binding means that the protein was enriched with, or labelled near, the bait; the list need not be complete. Where a sequence is shown, tags or fusion partners need not be part of it.
B1: SCO1 (endogenous) (protein, UniProt O75880 68-301)
chain: STARPPPPWSQKGPGDSTRPSKPGPVSWKSLAITFAIGGALLAGMKHVKKEKAEKLEKERQRHIGKPLLGGPFSLTTHTGERKTDKDYLGQWLLIYFGFTHCPDVCPEELEKMIQVVDEIDSITTLPDLTPLFISIDPERDTKEAIANYVKEFSPKLVGLTGTREEVDQVARAYRVYYSPGPKDEDEDYIVDHTIIMYLIGPDGEFLDYFGQNKRKGEIAASIATHMRPYRKKS
B2: COX19 (endogenous) (protein, UniProt Q49B96 1-90)
chain: MSTAMNFGTKSFQPRPPDKGSFPLDHLGECKSFKEKFMKCLHNNNFENALCRKESKEYLECRMERKLMLQEPLEKLGFGDLTSGKSEAKK
B3: SCO2 (endogenous) (protein, UniProt O43819 42-266)
chain: GPAETGGQGQPQGPGLRTRLLITGLFGAGLGGAWLALRAEKERLQQQKRTEALRQAAVGQGDFHLLDHRGRARCKADFRGQWVLMYFGFTHCPDICPDELEKLVQVVRQLEAEPGLPPVQPVFITVDPERDDVEAMARYVQDFHPRLLGLTGSTKQVAQASHSYRVYYNAGPKDEDQDYIVDHSIAIYLLNPDGLFTDYYGRSRSAEQISDSVRRHMAAFRSVLS
B4: COX15 (enzyme, UniProt Q7KZN9 1-410)
chain: MQRLLFPPLRALKGRQYLPLLAPRAAPRAQCDCIRRPLRPGQYSTISEVALQSGRGTVSLPSKAAERVVGRWLLVCSGTVAGAVILGGVTRLTESGLSMVDWHLIKEMKPPTSQEEWEAEFQRYQQFPEFKILNHDMTLTEFKFIWYMEYSHRMWGRLVGLVYILPAAYFWRKGWLSRGMKGRVLALCGLVCFQGLLGWYMVKSGLEEKSDSHDIPRVSQYRLAAHLGSALVLYCASLWTSLSLLLPPHKLPETHQLLQLRRFAHGTAGLVFLTALSGAFVAGLDAGLVYNSFPKMGESWIPEDLFTFSPILRNVFENPTMVQFDHRILGITSVTAITVLYFLSRRIPLPRRTKMAAVTLLALAYTQVGLGISTLLMYVPTPLAATHQSGSLALLTGALWLMNELRRVPK
B5: COA7 (protein, UniProt Q96BR5 1-231)
chain: MAGMVDFQDEEQVKSFLENMEVECNYHCYHEKDPDGCYRLVDYLEGIRKNFDEAAKVLKFNCEENQHSDSCYKLGAYYVTGKGGLTQDLKAAARCFLMACEKPGKKSIAACHNVGLLAHDGQVNEDGQPDLGKARDYYTRACDGGYTSSCFNLSAMFLQGAPGFPKDMDLACKYSMKACDLGHIWACANASRMYKLGDGVDKDEAKAEVLKNRAQQLHKEQQKGVQPLTFG
B6: HCCS (enzyme, UniProt P53701 1-268)
chain: MGLSPSAPAVAVQASNASASPPSGCPMHEGKMKGCPVNTEPSGPTCEKKTYSVPAHQERAYEYVECPIRGTAAENKENLDPSNLMPPPNQTPAPDQPFALSTVREESSIPRADSEKKWVYPSEQMFWNAMLKKGWKWKDEDISQKDMYNIIRIHNQNNEQAWKEILKWEALHAAECPCGPSLIRFGGKAKEYSPRARIRSWMGYELPFDRHDWIINRCGTEVRYVIDYYDGGEVNKDYQFTILDVRPALDSLSAVWDRMKVAWWRWTS

Tests used:
Experiment in all cases: affinity purification with mass spectrometry; FLAG IPs of COX11, COX19 and PET191 as for the immunoblots, eluted with 62.5 mM Tris-HCl pH 6.5, 2% SDS, acetone-precipitated, LC-MS/MS
PET191-FLAG (human) = molecular target: T1, PET191-FLAG (human) (UniProt Q86WW8)
T1 sequence: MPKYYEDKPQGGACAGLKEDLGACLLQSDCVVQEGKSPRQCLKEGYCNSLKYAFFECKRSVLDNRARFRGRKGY

COX19-FLAG (human) = molecular target: T2, COX19-FLAG (human) (UniProt Q49B96)
T2 sequence: B2 chain

COX11-FLAG (human) = molecular target: T3, COX11-FLAG (human) (UniProt Q9Y6N1)
T3 sequence: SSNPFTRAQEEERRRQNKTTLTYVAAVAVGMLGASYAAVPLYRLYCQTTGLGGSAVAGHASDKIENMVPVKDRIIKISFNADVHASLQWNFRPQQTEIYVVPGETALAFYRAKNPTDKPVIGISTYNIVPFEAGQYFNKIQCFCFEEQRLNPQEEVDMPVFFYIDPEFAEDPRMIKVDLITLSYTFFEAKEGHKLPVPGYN

| Binder | binding (PET191-FLAG (human)) | binding (COX19-FLAG (human)) | binding (COX11-FLAG (human)) |
| --- | --- | --- | --- |
| B1 | binds | binds | binds |
| B2 | – | – | binds |
| B3 | – | – | binds |
| B4 | binds | – | binds |
| B5 | binds | – | binds |
| B6 | binds | – | binds |

Source: paper PMC9232578
